Reference: paper PMC7351999
No constants are given. Whether binding was seen depends on the method and setting. Some binding calls cover weakened binding; strength is not graded here.

The chains behind the UniProt entries cited, without tags or fusion partners. Where a name states a change or a piece, a line headed by the entry shows the natural chain unless it says otherwise.
UniProt Q92608: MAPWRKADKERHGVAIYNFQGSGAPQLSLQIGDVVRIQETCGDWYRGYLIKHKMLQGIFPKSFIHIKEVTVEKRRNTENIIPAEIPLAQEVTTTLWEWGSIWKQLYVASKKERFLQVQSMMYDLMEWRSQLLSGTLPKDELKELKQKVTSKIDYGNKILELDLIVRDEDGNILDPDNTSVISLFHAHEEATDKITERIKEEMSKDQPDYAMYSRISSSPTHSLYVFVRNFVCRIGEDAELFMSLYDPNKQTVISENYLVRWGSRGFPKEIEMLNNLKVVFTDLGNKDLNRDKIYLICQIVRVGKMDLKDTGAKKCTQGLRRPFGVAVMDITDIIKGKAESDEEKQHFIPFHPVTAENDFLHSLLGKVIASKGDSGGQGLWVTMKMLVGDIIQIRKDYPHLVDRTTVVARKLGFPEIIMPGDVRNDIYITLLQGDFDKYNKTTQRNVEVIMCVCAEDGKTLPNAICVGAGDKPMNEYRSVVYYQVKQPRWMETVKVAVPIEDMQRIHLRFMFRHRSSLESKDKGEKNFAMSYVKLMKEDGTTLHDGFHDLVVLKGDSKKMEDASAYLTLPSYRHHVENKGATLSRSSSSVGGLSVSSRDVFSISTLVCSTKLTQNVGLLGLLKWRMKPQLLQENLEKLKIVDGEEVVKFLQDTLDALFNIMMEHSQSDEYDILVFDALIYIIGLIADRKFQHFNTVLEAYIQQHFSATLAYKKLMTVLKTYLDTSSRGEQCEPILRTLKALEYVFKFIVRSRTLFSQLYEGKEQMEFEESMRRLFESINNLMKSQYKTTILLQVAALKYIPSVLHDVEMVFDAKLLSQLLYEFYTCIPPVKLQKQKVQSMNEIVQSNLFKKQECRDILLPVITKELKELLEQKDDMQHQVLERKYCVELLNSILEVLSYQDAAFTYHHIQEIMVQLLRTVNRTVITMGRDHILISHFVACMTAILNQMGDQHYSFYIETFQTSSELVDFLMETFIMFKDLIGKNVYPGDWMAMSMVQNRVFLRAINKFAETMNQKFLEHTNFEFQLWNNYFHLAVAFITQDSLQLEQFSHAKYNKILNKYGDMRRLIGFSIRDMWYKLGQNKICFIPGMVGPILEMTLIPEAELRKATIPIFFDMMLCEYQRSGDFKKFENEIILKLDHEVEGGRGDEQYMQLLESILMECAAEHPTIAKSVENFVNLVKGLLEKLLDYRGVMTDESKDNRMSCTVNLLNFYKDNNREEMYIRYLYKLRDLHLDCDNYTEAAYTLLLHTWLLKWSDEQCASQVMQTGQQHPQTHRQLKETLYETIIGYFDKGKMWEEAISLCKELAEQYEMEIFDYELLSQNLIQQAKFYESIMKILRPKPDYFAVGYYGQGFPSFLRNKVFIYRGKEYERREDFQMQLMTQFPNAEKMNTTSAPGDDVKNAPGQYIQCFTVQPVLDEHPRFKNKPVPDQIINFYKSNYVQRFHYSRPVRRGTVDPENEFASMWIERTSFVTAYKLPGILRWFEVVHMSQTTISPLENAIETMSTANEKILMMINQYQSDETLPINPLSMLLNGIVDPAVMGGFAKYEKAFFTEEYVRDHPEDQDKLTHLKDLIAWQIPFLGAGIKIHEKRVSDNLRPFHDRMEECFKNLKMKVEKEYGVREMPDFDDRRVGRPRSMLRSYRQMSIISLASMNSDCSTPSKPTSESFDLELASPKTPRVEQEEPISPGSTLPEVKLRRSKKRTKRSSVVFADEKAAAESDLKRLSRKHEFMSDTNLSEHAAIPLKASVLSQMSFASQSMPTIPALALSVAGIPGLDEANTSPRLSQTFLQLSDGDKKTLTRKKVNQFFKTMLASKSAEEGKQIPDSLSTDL
UniProt Q92556: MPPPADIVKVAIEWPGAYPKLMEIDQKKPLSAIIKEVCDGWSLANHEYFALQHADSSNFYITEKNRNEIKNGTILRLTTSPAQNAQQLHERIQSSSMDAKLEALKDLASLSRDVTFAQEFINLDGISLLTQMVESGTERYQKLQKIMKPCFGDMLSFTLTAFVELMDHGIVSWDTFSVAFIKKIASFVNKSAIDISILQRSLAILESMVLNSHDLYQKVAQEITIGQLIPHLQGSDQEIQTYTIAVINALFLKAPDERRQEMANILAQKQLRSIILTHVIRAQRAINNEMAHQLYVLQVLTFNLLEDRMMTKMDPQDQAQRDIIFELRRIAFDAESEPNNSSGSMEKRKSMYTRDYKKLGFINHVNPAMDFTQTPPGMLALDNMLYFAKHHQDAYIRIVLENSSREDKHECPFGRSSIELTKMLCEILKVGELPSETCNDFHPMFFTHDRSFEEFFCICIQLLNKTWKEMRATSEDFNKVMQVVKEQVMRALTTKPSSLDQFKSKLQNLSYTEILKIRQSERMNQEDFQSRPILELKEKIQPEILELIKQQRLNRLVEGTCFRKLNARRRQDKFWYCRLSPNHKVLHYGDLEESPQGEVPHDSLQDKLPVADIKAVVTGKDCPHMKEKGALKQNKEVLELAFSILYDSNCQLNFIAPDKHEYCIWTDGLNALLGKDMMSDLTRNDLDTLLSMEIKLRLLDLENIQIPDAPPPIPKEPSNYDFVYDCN

Tests used:
[1] = target: DOCK2^(Y1315A/L1322A/Y1329A), dimerization mutant (human) (UniProt Q92608); test: SEC; co-expressed and co-purified DOCK2–ELMO1 complex, wild type and dimer mutant; gel filtration buffer 50 mM Tris HCl (pH 8.0), 200 mM NaCl, 2 mM DTT; Superose 6 / Superdex 200 5/150GL; both purified
[2] = target: human DOCK2 (dedicator of cytokinesis 2) (human) (UniProt Q92608); test: cryo-EM structure; DOCK2−ELMO1−RAC1 ternary complex, cross-linked with glutaraldehyde, single particle cryo-EM; both purified
[3] = target: human DOCK2 (dedicator of cytokinesis 2) (human) (UniProt Q92608); test: cryo-EM structure; DOCK2−ELMO1 binary complex without RAC1, cross-linked with glutaraldehyde, single particle cryo-EM; both purified
[4] = target: human DOCK2 (dedicator of cytokinesis 2) (human) (UniProt Q92608); test: SEC; co-expressed and co-purified DOCK2–ELMO1 complex, wild type and dimer mutant; gel filtration buffer 50 mM Tris HCl (pH 8.0), 200 mM NaCl, 2 mM DTT; Superose 6 / Superdex 200 5/150GL; both purified

| binding [1] | binding [2] | binding [3] | binding [4] | Substance |
| --- | --- | --- | --- | --- |
| no binding |  |  |  | DOCK2^(Y1315A/L1322A/Y1329A), dimerization mutant (from UniProt Q92608 1-1830) |
| binds | binds | binds | binds | human ELMO1 (engulfment and cell motility protein 1) (from UniProt Q92556 1-727) |
